Results published in patent US20150355172A1.
No constants are given. Whether binding was seen depends on the method and setting. Binding can be weak; no strength is given. Sequences can lack the tags named with a protein.

B1: Macro(AF1521)-Fc (AF1521 macrodomain-Fc fusion) (Fc fusion)
chain: MGHHHHHHHHHHSSGHIDDDDKHMWSHPQFEKMERRTLIMEVLFEAKVGDITLKLAQGDITQYPAKAIVNAANKRLEHGGGVAYAIAKACAGDAGLYTEISKKAMREQFGRDYIDHGEVVVTPAMNLEERGIKYVFHTVGPICSGMWSEELKEKLYKAFLGPLEKAEEMGVESIAFPAVSAGIYGCDLEKVVETFLEAVKNFKGSAVKEVALVIYDRKSAEVALKVFERSLGSTGSSSKPTCPPPELLGGPSVFIFPPKPKDTLMISRTPEVTCVVVDVSQDDPEVQFTWYINNEQVRTARPPLREQQFNSTIRVVSTLPIAHQDWLRGKEFKCKVHNKALPAPIEKTISKARGQPLEPKVYTMGPPREELSSRSVSLTCMINGFYPSDISVEWEKNGKAEDNYKTTPAVLDSDGSYFLYSKLSVPTSEWQRGDVFTCSVMHEALHNHYTQKSISRSPGK
B2: Macro(mH2A1.1)-Fc (macroH2A1.1 macrodomain-Fc fusion) (Fc fusion)
chain: MGHHHHHHHHHHSSGHIDDDDKHMGEVSKAASADSTTEGTPADGFTVLSTKSLFLGQKLQVVQADIASIDSDAVVHPTNTDFYIGGEVGNTLEKKGGKEFVEAVLELRKKNGPLEVAGAAVSAGHGLPAKFVIHCNSPVWGADKCEELLEKTVKNCLALADDKKLKSIAFPSIGSGRNGFPKQTAAQLILKAISSYFVSTMSSSIKTVYFVLFDSESIGIYVQEMAKLDANLDGSTGSSSKPTCPPPELLGGPSVFIFPPKPKDTLMISRTPEVTCVVVDVSQDDPEVQFTWYINNEQVRTARPPLREQQFNSTIRVVSTLPIAHQDWLRGKEFKCKVHNKALPAPIEKTISKARGQPLEPKVYTMGPPREELSSRSVSLTCMINGFYPSDISVEWEKNGKAEDNYKTTPAVLDSDGSYFLYSKLSVPTSEWQRGDVFTCSVMHEALHNHYTQKSISRSPGK

Assays:
[1] = biological target: auto-oligo-ADP-ribosylated PARP1 protein (less than 10 ADP-ribose units) (human); experiment: dot blot and Western blot, fusion at 10 ng/ul, goat anti-rabbit IgG HRP detection
[2] = biological target: auto-poly-ADP-ribosylated PARP1 protein (human); experiment: as above

Binder | binding [1] | binding [2]
B1 | binds | binds
B2 |  | binds
